Test results reported in PMC9273615, “Regulation of AUXIN RESPONSE FACTOR condensation and nucleo-cytoplasmic partitioning” (Nature Communications, 2022).
No constants are given. Whether binding was seen depends on the method and setting. Binding seen in cells or lysates may run through a third protein. Some entries that bind do so weakly or less than the wild type. Tags and fused reporters may be left off the sequences shown.

Molecular target: T1, ARF19 as BiFC fusions (nEYFP-ARF19 and cEYFP-ARF19) (Arabidopsis thaliana), Q8RYC8
T1 chain: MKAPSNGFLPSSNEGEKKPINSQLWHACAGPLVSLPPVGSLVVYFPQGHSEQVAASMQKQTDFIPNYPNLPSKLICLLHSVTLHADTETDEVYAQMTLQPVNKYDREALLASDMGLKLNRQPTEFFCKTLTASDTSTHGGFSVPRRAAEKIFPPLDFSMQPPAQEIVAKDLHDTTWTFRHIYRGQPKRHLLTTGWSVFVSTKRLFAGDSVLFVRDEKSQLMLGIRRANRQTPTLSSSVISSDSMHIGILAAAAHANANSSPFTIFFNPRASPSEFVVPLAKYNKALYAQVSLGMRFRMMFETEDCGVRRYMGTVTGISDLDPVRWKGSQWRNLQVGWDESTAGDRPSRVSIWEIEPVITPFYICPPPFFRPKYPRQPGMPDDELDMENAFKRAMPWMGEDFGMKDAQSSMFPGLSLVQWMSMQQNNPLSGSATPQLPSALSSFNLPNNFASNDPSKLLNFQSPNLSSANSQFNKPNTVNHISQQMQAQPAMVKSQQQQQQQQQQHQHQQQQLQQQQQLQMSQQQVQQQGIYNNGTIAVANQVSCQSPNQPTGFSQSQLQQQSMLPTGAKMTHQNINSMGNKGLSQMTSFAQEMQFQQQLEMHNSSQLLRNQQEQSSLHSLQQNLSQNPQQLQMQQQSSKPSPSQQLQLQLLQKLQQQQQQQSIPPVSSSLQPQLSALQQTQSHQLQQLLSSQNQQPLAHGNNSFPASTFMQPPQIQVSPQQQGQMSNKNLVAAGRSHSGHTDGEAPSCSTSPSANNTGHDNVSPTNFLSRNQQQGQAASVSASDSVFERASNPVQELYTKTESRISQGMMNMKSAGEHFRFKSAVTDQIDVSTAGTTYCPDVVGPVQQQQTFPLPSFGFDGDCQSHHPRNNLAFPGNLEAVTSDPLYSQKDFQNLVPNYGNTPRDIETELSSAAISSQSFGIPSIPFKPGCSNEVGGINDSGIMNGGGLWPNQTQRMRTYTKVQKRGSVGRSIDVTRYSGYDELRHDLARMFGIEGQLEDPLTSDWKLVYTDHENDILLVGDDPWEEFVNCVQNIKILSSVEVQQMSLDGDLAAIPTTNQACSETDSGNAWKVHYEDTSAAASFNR
Assay: split reporter; BiFC with nEYFP and cEYFP fusions co-infiltrated with the p19 strain into 3-week-old Nicotiana benthamiana leaves, 22 °C, 3 d; confocal microscopy; nuclear marker WPP-mCherry
Conditions: remark: other sources report otherwise

binding: binds
B1: ARF19 as BiFC fusions (nEYFP-ARF19 and cEYFP-ARF19), Q8RYC8 1-1086 (protein)
chain: MKAPSNGFLPSSNEGEKKPINSQLWHACAGPLVSLPPVGSLVVYFPQGHSEQVAASMQKQTDFIPNYPNLPSKLICLLHSVTLHADTETDEVYAQMTLQPVNKYDREALLASDMGLKLNRQPTEFFCKTLTASDTSTHGGFSVPRRAAEKIFPPLDFSMQPPAQEIVAKDLHDTTWTFRHIYRGQPKRHLLTTGWSVFVSTKRLFAGDSVLFVRDEKSQLMLGIRRANRQTPTLSSSVISSDSMHIGILAAAAHANANSSPFTIFFNPRASPSEFVVPLAKYNKALYAQVSLGMRFRMMFETEDCGVRRYMGTVTGISDLDPVRWKGSQWRNLQVGWDESTAGDRPSRVSIWEIEPVITPFYICPPPFFRPKYPRQPGMPDDELDMENAFKRAMPWMGEDFGMKDAQSSMFPGLSLVQWMSMQQNNPLSGSATPQLPSALSSFNLPNNFASNDPSKLLNFQSPNLSSANSQFNKPNTVNHISQQMQAQPAMVKSQQQQQQQQQQHQHQQQQLQQQQQLQMSQQQVQQQGIYNNGTIAVANQVSCQSPNQPTGFSQSQLQQQSMLPTGAKMTHQNINSMGNKGLSQMTSFAQEMQFQQQLEMHNSSQLLRNQQEQSSLHSLQQNLSQNPQQLQMQQQSSKPSPSQQLQLQLLQKLQQQQQQQSIPPVSSSLQPQLSALQQTQSHQLQQLLSSQNQQPLAHGNNSFPASTFMQPPQIQVSPQQQGQMSNKNLVAAGRSHSGHTDGEAPSCSTSPSANNTGHDNVSPTNFLSRNQQQGQAASVSASDSVFERASNPVQELYTKTESRISQGMMNMKSAGEHFRFKSAVTDQIDVSTAGTTYCPDVVGPVQQQQTFPLPSFGFDGDCQSHHPRNNLAFPGNLEAVTSDPLYSQKDFQNLVPNYGNTPRDIETELSSAAISSQSFGIPSIPFKPGCSNEVGGINDSGIMNGGGLWPNQTQRMRTYTKVQKRGSVGRSIDVTRYSGYDELRHDLARMFGIEGQLEDPLTSDWKLVYTDHENDILLVGDDPWEEFVNCVQNIKILSSVEVQQMSLDGDLAAIPTTNQACSETDSGNAWKVHYEDTSAAASFNR
